# Measurements: PMC5916273, “Structure of a VirD4 coupling protein bound to a VirB type IV secretion machinery” (The EMBO Journal, 2017)
# T1: TrwB/VirD4 coupling protein of plasmid R388, C-terminally His-tagged (conjugative plasmid R388) (UniProt Q04230)
# T1 sequence: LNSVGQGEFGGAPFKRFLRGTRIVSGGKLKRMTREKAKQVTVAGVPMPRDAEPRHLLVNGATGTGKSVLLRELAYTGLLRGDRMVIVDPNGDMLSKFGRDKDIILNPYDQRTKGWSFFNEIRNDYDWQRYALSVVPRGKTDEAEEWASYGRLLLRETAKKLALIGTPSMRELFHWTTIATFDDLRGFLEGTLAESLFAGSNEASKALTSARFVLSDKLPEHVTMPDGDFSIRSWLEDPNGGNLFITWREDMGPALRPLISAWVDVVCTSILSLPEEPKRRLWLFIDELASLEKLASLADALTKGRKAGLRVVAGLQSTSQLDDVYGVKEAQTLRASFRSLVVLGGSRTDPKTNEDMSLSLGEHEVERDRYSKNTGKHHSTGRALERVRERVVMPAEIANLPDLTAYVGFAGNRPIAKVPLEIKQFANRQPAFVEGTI
# B1: OmpC (protein, UniProt P06996 22-367)
# chain: AEVYNKDGNKLDLYGKVDGLHYFSDNKDVDGDQTYMRLGFKGETQVTDQLTGYGQWEYQIQGNSAENENNSWTRVAFAGLKFQDVGSFDYGRNYGVVYDVTSWTDVLPEFGGDTYGSDNFMQQRGNGFATYRNTDFFGLVDGLNFAVQYQGKNGNPSGEGFTSGVTNNGRDALRQNGDGVGGSITYDYEGFGIGGAISSSKRTDAQNTAAYIGNGDRAETYTGGLKYDANNIYLAAQYTQTYNATRVGSLGWANKAQNFEAVAQYQFDFGLRPSLAYLQSKGKNLGRGYDDEDILKYVDVGATYYFNKNMSTYVDYKINLLDDNQFTRDAGINTDNIVALGLVYQF
# B2: TrwB/VirD4 coupling protein of plasmid R388, C-terminally His-tagged (protein, UniProt Q04230 71-507)
# chain: T1 sequence
# B3: TrwB/VirD4 of plasmid R388 with a FLAG tag inserted at Thr236, N-terminally His-tagged (protein, UniProt Q04230 71-507)
# chain: T1 sequence
# What was measured:
# [1] = target: T1, TrwB/VirD4 coupling protein of plasmid R388, C-terminally His-tagged (conjugative plasmid R388); assay: pull-down; two consecutive tag-affinity steps from DDM/digitonin/TDAO-solubilised membranes of E. coli TOP10 co-expressing the trw cluster: Strep column on TrwE-Strep, then HisTrap on His-tagged TrwB; 50 mM HEPES pH 7.6, 200 mM sodium acetate, 0.1% digitonin, 0.05 mM TDAO; SDS-PAGE, bands identified by mass spectrometry, Western blots; same composition with the ΔtrwL/virB2, ΔtrwJ/virB5 and ΔtrwD/virB11 constructs
# [2] = target: TrwE/VirB10 of plasmid R388, C-terminally Strep-tagged (conjugative plasmid R388); assay: pull-down; T4SS3-10 complex purified from cells expressing pBADM11_trwN/virB1-trwE/virB10Strep_trwD/virB11 (no TrwB); SDS-PAGE, Sypro Ruby
# [3] = target: T4SS_(3-10) complex of plasmid R388 (TrwM/VirB3 to TrwE/VirB10) (conjugative plasmid R388); assay: pull-down; two consecutive tag-affinity steps from DDM/digitonin/TDAO-solubilised membranes of E. coli TOP10 co-expressing the trw cluster: Strep column on TrwE-Strep, then HisTrap on His-tagged TrwB; 50 mM HEPES pH 7.6, 200 mM sodium acetate, 0.1% digitonin, 0.05 mM TDAO; SDS-PAGE, bands identified by mass spectrometry, Western blots; same composition with the ΔtrwL/virB2, ΔtrwJ/virB5 and ΔtrwD/virB11 constructs
# [4] = target: TrwE/VirB10 of plasmid R388, C-terminally Strep-tagged (conjugative plasmid R388); assay: as above
Molecule,binding [1],other results
TrwM/VirB3 of plasmid R388 (conjugative plasmid R388),binds,
TrwI/VirB6 of plasmid R388 (conjugative plasmid R388),binds,
TrwJ/VirB5 of plasmid R388 (conjugative plasmid R388),binds,
TrwH/VirB7 of plasmid R388 (conjugative plasmid R388),binds,
TrwF/VirB9 of plasmid R388 (conjugative plasmid R388),binds,
TrwG/VirB8 of plasmid R388 (conjugative plasmid R388),binds,
TrwK/VirB4 of plasmid R388 (conjugative plasmid R388),binds,
B1,,binding [2]: no binding
B2,,binding [3]: binds; binding [4]: binds
B3,,binding [3]: binds

# No constants are given. Whether binding was seen depends on the method and setting. In cells and extracts the contact can be indirect. For some assays here: A result given as binding can be weak or reduced; the word gives no strength. For some assays here: Tags and fused reporters may be left off the sequences shown.
